Experimental data as given in the supplement of paper PMC10849652.
The list shows a part of the results.

Protein sequences, listed by entry. Tags and fused reporters are not part of them. Lines headed by an entry give the natural chain unless they say otherwise; changes in a name come on top.
UniProt Q9C073: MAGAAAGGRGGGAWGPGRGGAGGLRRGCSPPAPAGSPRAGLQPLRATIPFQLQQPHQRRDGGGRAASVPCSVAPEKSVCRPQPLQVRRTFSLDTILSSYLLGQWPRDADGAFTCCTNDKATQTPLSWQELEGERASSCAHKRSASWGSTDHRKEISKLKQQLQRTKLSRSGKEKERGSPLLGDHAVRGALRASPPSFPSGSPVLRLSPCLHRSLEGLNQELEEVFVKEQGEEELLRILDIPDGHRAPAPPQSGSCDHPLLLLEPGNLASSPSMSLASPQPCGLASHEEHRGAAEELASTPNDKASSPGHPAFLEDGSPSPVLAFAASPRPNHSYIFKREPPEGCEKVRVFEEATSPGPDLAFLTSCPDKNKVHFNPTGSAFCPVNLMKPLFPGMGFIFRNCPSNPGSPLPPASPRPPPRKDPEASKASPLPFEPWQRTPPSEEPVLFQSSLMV
UniProt Q9NRY5: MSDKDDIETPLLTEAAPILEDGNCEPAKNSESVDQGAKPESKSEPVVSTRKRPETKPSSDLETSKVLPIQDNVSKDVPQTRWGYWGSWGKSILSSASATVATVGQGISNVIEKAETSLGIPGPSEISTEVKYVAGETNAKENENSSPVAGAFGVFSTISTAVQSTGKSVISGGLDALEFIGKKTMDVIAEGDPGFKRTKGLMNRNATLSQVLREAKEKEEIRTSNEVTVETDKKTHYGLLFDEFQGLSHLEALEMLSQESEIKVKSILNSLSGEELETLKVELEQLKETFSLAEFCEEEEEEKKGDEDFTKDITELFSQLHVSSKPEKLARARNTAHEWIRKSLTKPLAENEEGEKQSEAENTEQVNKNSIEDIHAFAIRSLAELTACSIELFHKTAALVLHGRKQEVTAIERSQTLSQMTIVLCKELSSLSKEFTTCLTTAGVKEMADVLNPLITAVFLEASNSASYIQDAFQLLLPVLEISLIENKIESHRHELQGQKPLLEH
UniProt Q96KP1: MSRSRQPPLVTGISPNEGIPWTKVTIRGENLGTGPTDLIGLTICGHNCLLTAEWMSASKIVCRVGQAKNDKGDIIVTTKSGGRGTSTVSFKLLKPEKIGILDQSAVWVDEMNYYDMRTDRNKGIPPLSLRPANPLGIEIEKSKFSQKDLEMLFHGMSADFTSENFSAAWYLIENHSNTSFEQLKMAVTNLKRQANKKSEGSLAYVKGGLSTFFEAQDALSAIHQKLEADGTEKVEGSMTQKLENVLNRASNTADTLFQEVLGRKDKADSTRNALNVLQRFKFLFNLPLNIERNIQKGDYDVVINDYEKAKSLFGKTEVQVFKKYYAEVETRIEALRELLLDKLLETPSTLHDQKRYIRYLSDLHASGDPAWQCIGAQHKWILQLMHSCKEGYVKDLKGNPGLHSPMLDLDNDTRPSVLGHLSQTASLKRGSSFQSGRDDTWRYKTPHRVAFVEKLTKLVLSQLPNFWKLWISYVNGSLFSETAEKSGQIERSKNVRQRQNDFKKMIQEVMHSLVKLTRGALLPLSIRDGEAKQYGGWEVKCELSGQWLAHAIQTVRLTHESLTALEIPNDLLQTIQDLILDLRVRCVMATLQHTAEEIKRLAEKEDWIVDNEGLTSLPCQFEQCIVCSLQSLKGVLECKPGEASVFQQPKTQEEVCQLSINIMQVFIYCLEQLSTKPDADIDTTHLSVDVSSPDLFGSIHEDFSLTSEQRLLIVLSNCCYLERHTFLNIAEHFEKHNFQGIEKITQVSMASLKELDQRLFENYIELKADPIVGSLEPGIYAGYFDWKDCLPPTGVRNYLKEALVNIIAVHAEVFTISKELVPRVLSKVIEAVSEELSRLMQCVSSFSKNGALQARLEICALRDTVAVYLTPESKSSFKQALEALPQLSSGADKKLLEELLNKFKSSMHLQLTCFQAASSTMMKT
UniProt Q96CS3: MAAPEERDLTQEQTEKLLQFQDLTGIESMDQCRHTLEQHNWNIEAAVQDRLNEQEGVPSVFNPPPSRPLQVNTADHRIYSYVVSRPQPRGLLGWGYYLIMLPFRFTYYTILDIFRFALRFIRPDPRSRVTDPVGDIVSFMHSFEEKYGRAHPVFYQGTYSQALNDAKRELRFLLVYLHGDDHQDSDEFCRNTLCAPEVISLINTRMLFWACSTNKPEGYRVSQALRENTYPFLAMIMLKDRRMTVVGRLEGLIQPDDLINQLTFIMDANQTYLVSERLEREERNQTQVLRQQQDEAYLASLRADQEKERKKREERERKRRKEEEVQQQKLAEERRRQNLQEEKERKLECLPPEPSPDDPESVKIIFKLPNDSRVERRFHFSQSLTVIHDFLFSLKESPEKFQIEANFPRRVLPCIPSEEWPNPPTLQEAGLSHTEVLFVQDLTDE
UniProt O75477: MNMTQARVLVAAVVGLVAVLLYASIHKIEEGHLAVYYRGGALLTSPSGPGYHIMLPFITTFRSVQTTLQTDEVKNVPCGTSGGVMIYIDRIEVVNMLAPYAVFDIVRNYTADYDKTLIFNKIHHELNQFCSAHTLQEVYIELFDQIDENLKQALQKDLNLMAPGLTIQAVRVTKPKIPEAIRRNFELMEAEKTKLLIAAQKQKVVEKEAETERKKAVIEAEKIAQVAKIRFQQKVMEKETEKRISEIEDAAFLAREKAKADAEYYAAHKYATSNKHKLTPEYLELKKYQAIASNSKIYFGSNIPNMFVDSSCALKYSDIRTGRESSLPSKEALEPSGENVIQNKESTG
UniProt Q96DF8: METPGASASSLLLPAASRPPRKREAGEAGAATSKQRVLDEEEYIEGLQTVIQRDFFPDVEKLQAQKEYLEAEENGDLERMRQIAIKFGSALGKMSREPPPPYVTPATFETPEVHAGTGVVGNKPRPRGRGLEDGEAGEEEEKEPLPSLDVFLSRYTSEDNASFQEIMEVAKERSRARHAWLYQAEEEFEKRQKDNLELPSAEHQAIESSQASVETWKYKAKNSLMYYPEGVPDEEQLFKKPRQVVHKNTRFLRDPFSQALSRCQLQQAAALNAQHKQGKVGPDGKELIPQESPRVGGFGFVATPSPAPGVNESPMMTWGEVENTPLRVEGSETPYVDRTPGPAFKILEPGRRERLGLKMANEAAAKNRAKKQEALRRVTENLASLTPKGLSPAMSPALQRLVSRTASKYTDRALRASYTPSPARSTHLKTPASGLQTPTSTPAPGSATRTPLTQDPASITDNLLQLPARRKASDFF
UniProt Q9UBQ6: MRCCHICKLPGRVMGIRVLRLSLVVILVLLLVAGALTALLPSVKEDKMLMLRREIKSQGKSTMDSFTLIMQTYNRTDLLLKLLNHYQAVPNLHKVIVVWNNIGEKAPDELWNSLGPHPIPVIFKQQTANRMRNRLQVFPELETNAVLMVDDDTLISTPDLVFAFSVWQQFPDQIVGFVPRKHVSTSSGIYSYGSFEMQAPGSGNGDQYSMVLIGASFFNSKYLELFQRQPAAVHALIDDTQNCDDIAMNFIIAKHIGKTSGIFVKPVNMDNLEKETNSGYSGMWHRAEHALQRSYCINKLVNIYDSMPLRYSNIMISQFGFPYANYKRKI
UniProt Q13216, whole entry, looked up: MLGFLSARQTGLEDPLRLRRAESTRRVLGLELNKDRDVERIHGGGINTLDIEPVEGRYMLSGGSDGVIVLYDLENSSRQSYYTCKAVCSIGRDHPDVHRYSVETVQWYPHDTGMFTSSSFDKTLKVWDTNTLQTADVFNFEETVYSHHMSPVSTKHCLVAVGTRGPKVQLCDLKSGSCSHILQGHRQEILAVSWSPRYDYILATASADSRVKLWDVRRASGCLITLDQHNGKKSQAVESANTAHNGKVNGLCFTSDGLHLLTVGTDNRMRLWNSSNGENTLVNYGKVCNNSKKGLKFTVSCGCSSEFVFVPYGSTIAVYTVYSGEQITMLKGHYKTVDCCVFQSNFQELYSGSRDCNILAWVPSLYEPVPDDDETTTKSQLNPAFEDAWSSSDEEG
UniProt Q9NV70: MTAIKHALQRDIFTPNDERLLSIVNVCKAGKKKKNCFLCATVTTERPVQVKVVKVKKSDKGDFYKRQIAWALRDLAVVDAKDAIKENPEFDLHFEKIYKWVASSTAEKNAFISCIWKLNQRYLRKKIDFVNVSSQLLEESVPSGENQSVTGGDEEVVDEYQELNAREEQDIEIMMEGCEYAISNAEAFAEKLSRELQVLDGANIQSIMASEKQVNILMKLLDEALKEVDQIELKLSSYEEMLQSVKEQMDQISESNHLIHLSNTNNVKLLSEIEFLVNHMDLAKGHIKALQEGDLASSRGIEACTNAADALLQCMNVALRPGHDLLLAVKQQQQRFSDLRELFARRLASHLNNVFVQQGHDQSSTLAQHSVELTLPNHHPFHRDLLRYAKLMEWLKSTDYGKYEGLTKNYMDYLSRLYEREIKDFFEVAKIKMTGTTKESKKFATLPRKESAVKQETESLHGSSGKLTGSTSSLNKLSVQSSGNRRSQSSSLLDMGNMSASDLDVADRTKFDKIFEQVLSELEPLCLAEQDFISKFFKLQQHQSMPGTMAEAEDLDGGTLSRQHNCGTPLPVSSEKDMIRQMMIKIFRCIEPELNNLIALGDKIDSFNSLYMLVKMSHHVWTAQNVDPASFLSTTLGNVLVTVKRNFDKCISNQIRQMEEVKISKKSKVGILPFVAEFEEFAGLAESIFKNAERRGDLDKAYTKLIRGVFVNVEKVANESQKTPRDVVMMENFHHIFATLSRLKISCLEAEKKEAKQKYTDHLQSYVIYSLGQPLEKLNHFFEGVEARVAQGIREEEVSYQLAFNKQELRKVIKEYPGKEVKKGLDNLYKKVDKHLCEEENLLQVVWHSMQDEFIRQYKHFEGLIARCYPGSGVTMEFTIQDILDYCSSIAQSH
UniProt O75616: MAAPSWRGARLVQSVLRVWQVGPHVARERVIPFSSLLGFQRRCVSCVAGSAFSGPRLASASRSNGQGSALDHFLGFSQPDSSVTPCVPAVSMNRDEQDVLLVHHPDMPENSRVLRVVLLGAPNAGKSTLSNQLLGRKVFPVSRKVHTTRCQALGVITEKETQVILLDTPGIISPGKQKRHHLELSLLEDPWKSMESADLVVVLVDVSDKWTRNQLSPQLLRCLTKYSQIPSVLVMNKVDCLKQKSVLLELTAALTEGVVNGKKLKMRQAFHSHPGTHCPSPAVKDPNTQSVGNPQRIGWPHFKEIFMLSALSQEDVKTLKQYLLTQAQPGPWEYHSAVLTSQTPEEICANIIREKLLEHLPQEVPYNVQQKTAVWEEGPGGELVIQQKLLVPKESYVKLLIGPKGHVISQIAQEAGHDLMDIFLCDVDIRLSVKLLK
UniProt Q0VG06: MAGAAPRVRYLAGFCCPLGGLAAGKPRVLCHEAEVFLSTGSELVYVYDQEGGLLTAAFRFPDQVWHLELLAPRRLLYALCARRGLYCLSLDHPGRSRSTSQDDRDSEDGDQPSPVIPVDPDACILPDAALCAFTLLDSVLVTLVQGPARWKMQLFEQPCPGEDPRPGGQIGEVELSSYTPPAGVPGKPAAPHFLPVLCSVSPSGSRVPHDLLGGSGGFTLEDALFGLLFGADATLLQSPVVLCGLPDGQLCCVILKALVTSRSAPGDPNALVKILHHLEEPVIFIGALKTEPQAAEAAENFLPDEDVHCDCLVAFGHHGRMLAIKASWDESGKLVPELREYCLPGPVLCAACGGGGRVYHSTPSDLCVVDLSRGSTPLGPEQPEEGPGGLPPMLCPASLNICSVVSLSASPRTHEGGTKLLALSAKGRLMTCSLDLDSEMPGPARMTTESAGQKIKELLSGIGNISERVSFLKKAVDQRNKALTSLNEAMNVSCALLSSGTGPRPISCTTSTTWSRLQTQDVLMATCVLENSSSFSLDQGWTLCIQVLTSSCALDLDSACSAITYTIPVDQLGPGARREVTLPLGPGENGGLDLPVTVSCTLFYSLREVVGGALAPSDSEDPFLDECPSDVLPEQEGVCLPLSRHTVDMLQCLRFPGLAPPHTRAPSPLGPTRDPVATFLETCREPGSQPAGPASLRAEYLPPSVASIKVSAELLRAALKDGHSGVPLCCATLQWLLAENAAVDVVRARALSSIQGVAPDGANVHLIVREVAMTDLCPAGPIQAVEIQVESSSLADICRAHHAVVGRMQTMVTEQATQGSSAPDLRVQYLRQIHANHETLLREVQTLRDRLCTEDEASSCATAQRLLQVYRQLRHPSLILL
UniProt Q13158: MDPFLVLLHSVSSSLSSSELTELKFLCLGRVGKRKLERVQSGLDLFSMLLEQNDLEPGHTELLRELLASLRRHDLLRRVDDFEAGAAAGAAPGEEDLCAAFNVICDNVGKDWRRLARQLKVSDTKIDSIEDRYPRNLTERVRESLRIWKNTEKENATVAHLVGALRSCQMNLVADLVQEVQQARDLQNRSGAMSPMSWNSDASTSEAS
UniProt Q96E09: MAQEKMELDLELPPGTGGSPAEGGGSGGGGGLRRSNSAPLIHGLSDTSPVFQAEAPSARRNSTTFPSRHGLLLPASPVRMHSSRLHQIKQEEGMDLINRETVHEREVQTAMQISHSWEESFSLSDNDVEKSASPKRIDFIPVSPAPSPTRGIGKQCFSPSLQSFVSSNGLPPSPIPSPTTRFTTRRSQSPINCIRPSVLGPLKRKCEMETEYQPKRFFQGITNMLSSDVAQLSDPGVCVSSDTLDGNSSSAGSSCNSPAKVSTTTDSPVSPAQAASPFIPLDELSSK

Tests used:
Assay in all cases: log2 fold change, soluble protein after heating vs DMSO (PISA); higher = thermal stabilisation; K562 cells, 10 uM, 30 min; active = over 0.2 and 3.5 SD of the protein, either way, in both replicates (recomputed)
[1] = compound: COC1=CC=C(C=C1)CN2C=CC3=C2C=C(C=C3)C(=O)NO
Outline: (§1)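 Values are thermal stability changes relative to control samples and are taken from duplicates. They are stated as log2 fold changes. Before quantification by TMTpro 16plex LC-MS/MS with equalised channel sums, K562 cells at 2×10^6 cells/mL were treated with 10 μM compound for 30 min, heated in aliquots for 3 min across 48°C-58°C, pooled, extracted in PBS with 0.5% NP-40 at 4°C, and centrifuged at 21,000xg for 90 min to give the soluble supernatant.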

filanesib = compound: CON(C)C(=O)N1N=C(c2cc(F)ccc2F)S[C@@]1(CCCN)c1ccccc1 [filanesib]
Outline: as §1

zotarolimus = compound: CO[C@H]1C[C@@H]2CC[C@@H](C)[C@@](O)(O2)C(=O)C(=O)N2CCCC[C@H]2C(=O)O[C@H]([C@H](C)C[C@@H]2CC[C@H](n3cnnn3)[C@H](OC)C2)CC(=O)[C@H](C)/C=C(\C)[C@@H](O)[C@@H](OC)C(=O)[C@H](C)C[C@H](C)/C=C/C=C/C=C/1C [zotarolimus]
Outline: as §1

idasanutlin = compound: COc1cc(C(=O)O)ccc1NC(=O)[C@@H]1N[C@@H](CC(C)(C)C)[C@](C#N)(c2ccc(Cl)cc2F)[C@H]1c1cccc(Cl)c1F [idasanutlin]
Outline: as §1

alisertib = compound: COc1cc(Nc2ncc3c(n2)-c2ccc(Cl)cc2C(c2c(F)cccc2OC)=NC3)ccc1C(=O)O [alisertib]
Outline: as §1

[2] = compound: COc1cc2nc(-c3cc(F)ccc3O)nc(N[C@@H]3CNC[C@H]3C(C)(C)O)c2cc1OC
Outline: as §1

gefitinib = compound: COc1cc2ncnc(Nc3ccc(F)c(Cl)c3)c2cc1OCCCN1CCOCC1 [gefitinib]
Outline: as §1

[3] = compound: COc1cccc2cc(-c3nc([C@H]4CC[C@H](C(=O)O)CC4)n4ncnc(N)c34)[nH]c12
Outline: as §1

lapatinib = compound: CS(=O)(=O)CCNCc1ccc(-c2ccc3ncnc(Nc4ccc(OCc5cccc(F)c5)c(Cl)c4)c3c2)o1 [lapatinib]
Outline: as §1

pictilisib = compound: CS(=O)(=O)N1CCN(Cc2cc3nc(-c4cccc5[nH]ncc45)nc(N4CCOCC4)c3s2)CC1 [pictilisib]
Outline: as §1

[4] = compound: CS(=O)(=O)c1ccc(-c2cnc(N)c(C(=O)Nc3ccccc3)n2)cc1
Outline: as §1

crizotinib = compound: C[C@@H](Oc1cc(-c2cnn(C3CCNCC3)c2)cnc1N)c1c(Cl)ccc(F)c1Cl [crizotinib]
Outline: as §1

[5] = compound: C[C@@H]1COCCN1C2=NC(=NC(=C2)C3(CC3)S(=O)(=O)C)C4=C5C=CNC5=CC=C4
Outline: as §1

[6] = compound: C[C@H](C1=CC=C(C=C1)C(=O)NC2=C3C=CNC3=NC=C2)N
Outline: as §1

gandotinib = compound: Cc1cc(Nc2cc(CN3CCOCC3)c3nc(C)c(Cc4ccc(Cl)cc4F)n3n2)n[nH]1 [gandotinib]
Outline: as §1

[7] = compound: Cc1cc(SCc2sc(-c3ccc(C(F)(F)F)cc3)nc2C)ccc1OCC(=O)O
Outline: as §1

doramapimod = compound: Cc1ccc(-n2nc(C(C)(C)C)cc2NC(=O)Nc2ccc(OCCN3CCOCC3)c3ccccc23)cc1 [doramapimod]
Outline: as §1

ispinesib = compound: Cc1ccc(C(=O)N(CCCN)[C@@H](c2nc3cc(Cl)ccc3c(=O)n2Cc2ccccc2)C(C)C)cc1 [ispinesib]
Outline: as §1

duvelisib = compound: C[C@H](Nc1ncnc2nc[nH]c12)c1cc2cccc(Cl)c2c(=O)n1-c1ccccc1 [duvelisib]
Outline: as §1

tozasertib = compound: Cc1cc(Nc2cc(N3CCN(C)CC3)nc(Sc3ccc(NC(=O)C4CC4)cc3)n2)n[nH]1 [tozasertib]
Outline: as §1

Measured: log2 fold change

FAM117A (UniProt Q9C073)
inactive: [1] 0.105 | filanesib -0.025 | zotarolimus 0.008 | idasanutlin 0.076 | alisertib 0 | [2] -0.059 | gefitinib -0.004 | [3] 0.024 | lapatinib -0.026 | pictilisib -0.019 | [4] -0.039 | crizotinib -0.166 | [5] -0.013 | [6] -0.132 | gandotinib -0.053 | [7] 0.067 | doramapimod 0.017 | ispinesib 0.024

FAM114A2 (UniProt Q9NRY5)
inactive: [1] 0 | filanesib -0.131 | zotarolimus -0.01 | idasanutlin -0.036 | alisertib -0.038 | [2] -0.093 | gefitinib 0.002 | [3] 0.035 | lapatinib -0.009 | pictilisib -0.02 | [4] -0.005 | crizotinib -0.197 | [5] 0.026 | [6] -0.026 | gandotinib -0.06 | [7] 0.011 | doramapimod -0.052 | ispinesib -0.096

EXOC2 (UniProt Q96KP1)
active: ispinesib -0.394
inactive: [1] 0.015 | filanesib -0.009 | zotarolimus 0.021 | idasanutlin -0.02 | alisertib -0.011 | [2] 0.096 | gefitinib 0.107 | [3] -0.106 | lapatinib -0.037 | pictilisib 0.059 | [4] 0.006 | crizotinib -0.308 | [5] -0.112 | [6] 0.101 | gandotinib 0.009 | [7] 0.119 | doramapimod 0.06

FAF2 (UniProt Q96CS3)
inactive: [1] -0.019 | filanesib -0.022 | zotarolimus 0.035 | idasanutlin 0.007 | alisertib 0.004 | [2] -0.011 | gefitinib 0.056 | [3] 0.009 | lapatinib 0.029 | pictilisib 0.017 | [4] 0.049 | crizotinib -0.056 | [5] 0.042 | [6] 0.049 | gandotinib 0.022 | [7] 0.059 | doramapimod 0.023 | ispinesib -0.011

ERLIN1 (UniProt O75477)
inactive: [1] -0.013 | filanesib 0.031 | zotarolimus 0.037 | idasanutlin 0.128 | alisertib -0.092 | [2] -0.075 | gefitinib -0.051 | [3] -0.14 | lapatinib 0.006 | pictilisib -0.107 | [4] 0.012 | crizotinib -0.039 | [5] -0.038 | [6] 0.099 | gandotinib -0.04 | [7] 0.148 | doramapimod 0.057
active: ispinesib -0.27

ERCC2 (UniProt P18074)
inactive: [1] -0.024 | filanesib 0.018 | zotarolimus 0.068 | idasanutlin 0.063 | alisertib 0.001 | [2] -0.061 | gefitinib -0.03 | [3] -0.021 | lapatinib 0.049 | pictilisib 0.042 | [4] 0.011 | crizotinib 0.059 | [5] -0.046 | [6] -0.013 | gandotinib -0.035 | [7] 0.08 | doramapimod 0.031 | ispinesib -0.045

Quoted at random: two entries already listed
FAM114A2 (UniProt Q9NRY5)
inactive: [1] 0 | filanesib -0.131 | zotarolimus -0.01 | idasanutlin -0.036 | alisertib -0.038 | [2] -0.093 | gefitinib 0.002 | [3] 0.035 | lapatinib -0.009 | pictilisib -0.02 | [4] -0.005 | crizotinib -0.197 | [5] 0.026 | [6] -0.026 | gandotinib -0.06 | [7] 0.011 | doramapimod -0.052 | ispinesib -0.096

ERCC2 (UniProt P18074)
inactive: [1] -0.024 | filanesib 0.018 | zotarolimus 0.068 | idasanutlin 0.063 | alisertib 0.001 | [2] -0.061 | gefitinib -0.03 | [3] -0.021 | lapatinib 0.049 | pictilisib 0.042 | [4] 0.011 | crizotinib 0.059 | [5] -0.046 | [6] -0.013 | gandotinib -0.035 | [7] 0.08 | doramapimod 0.031 | ispinesib -0.045

(listing goes on)

ESS2 (UniProt Q96DF8)
inactive: [1] -0.022 | filanesib 0.046 | zotarolimus -0.019 | idasanutlin 0.052 | alisertib -0.125 | [2] -0.037 | gefitinib -0.088 | [3] 0.005 | lapatinib 0.073 | pictilisib -0.083 | [4] -0.081 | crizotinib -0.079 | [5] 0.016 | [6] 0.031 | gandotinib 0.004 | [7] -0.044 | doramapimod 0.02 | ispinesib -0.053

EXTL2 (UniProt Q9UBQ6)
inactive: [1] 0.051 | filanesib -0.023 | zotarolimus -0.147 | idasanutlin -0.121 | alisertib -0.144 | [2] -0.094 | gefitinib 0.075 | [3] 0.123 | lapatinib 0.05 | pictilisib -0.111 | [4] 0.132 | crizotinib 0.111 | [5] 0.014 | [6] -0.227 | gandotinib 0.068 | [7] -0.046 | doramapimod -0.01 | ispinesib 0.108

EXOC4 (UniProt Q96A65)
inactive: [1] 0.029 | filanesib 0.009 | zotarolimus 0.065 | idasanutlin -0.052 | alisertib -0.002 | [2] 0.164 | gefitinib 0.002 | [3] -0.086 | lapatinib 0.008 | pictilisib -0.059 | [4] 0.003 | crizotinib -0.275 | [5] -0.099 | [6] 0.098 | gandotinib -0.068 | [7] 0.162 | doramapimod 0.016 | ispinesib -0.29

ERCC8 (UniProt Q13216)
inactive: [1] -0.02 | filanesib -0.101 | zotarolimus -0.186 | idasanutlin 0.144 | alisertib 0.01 | [2] -0.09 | gefitinib 0.073 | [3] 0.109 | lapatinib 0.046 | pictilisib 0.078 | [4] 0.086 | crizotinib -0.078 | [6] 0.127 | duvelisib 0.211 | gandotinib 0.123 | tozasertib 0.091 | [7] -0.037 | doramapimod 0.051 | ispinesib 0.047

EXOC8 (UniProt Q8IYI6)
inactive: [1] 0.005 | filanesib -0.044 | zotarolimus 0.056 | idasanutlin -0.072 | alisertib 0.014 | [2] 0.038 | gefitinib -0.047 | [3] -0.003 | lapatinib -0.054 | pictilisib -0.156 | [4] -0.062 | [5] 0.109 | [6] 0.053 | gandotinib -0.203 | [7] 0.063 | doramapimod 0.007
active: crizotinib -0.32 | ispinesib -0.364

FAM177A1 isoform 2 (UniProt Q8N128)
inactive: [1] -0.072 | filanesib -0.145 | zotarolimus -0.041 | idasanutlin -0.02 | alisertib 0.013 | gefitinib 0.031 | [3] -0.029 | lapatinib -0.018 | pictilisib 0 | [4] 0.018 | crizotinib -0.109 | [5] 0.059 | [6] -0.063 | gandotinib -0.102 | [7] -0.027 | doramapimod -0.012 | ispinesib -0.082
active: [2] -0.291

EXOC1 (UniProt Q9NV70)
active: ispinesib -0.472
inactive: [1] -0.056 | filanesib 0.01 | zotarolimus 0.038 | idasanutlin -0.084 | alisertib 0.015 | [2] 0.131 | gefitinib -0.045 | [3] -0.129 | lapatinib -0.011 | pictilisib -0.021 | [4] -0.036 | crizotinib -0.336 | [5] -0.007 | [6] 0.174 | gandotinib -0.179 | [7] 0.067 | doramapimod 0.138

ERAL1 (UniProt O75616)
inactive: [1] 0.093 | filanesib 0.049 | zotarolimus 0.16 | idasanutlin 0.179 | alisertib -0.076 | [2] -0.212 | gefitinib 0.166 | [3] 0.135 | lapatinib 0.093 | [4] -0.174 | crizotinib -0.142 | [5] -0.437 | [6] -0.159 | duvelisib -0.023 | [7] 0.016 | doramapimod 0.083

FAAP100 (UniProt Q0VG06)
inactive: [1] -0.008 | filanesib -0.012 | zotarolimus -0.025 | idasanutlin 0.055 | alisertib -0.044 | [2] -0.095 | gefitinib 0.036 | [3] 0.004 | lapatinib 0.011 | pictilisib -0.067 | [4] -0.043 | crizotinib -0.027 | [5] 0.142 | [6] -0.051 | gandotinib -0.096 | [7] -0.077 | doramapimod 0.033 | ispinesib -0.006

FADD (UniProt Q13158)
inactive: [1] -0.041 | filanesib -0.018 | zotarolimus 0.018 | idasanutlin 0.042 | alisertib -0.246 | [2] 0.044 | gefitinib -0.021 | [3] -0.031 | lapatinib 0.065 | [4] 0.013 | crizotinib -0.021 | [5] -0.137 | [6] -0.027 | duvelisib -0.097 | tozasertib -0.03 | [7] 0.073 | doramapimod -0.189 | ispinesib -0.075

FAM122A (UniProt Q96E09)
inactive: [1] -0.05 | filanesib -0.004 | zotarolimus -0.038 | idasanutlin 0.017 | alisertib -0.068 | [2] -0.053 | gefitinib 0.019 | [3] 0.005 | lapatinib 0.018 | pictilisib 0.092 | [4] 0.077 | crizotinib -0.032 | [5] -0.267 | [6] -0.042 | gandotinib -0.015 | [7] -0.015 | doramapimod 0.014 | ispinesib 0
